# Experimental data as given in patent publication US20250176599A1, “FLAVOR COMPOSITION AND FOOD AND BEVERAGE” (TAKASAGO INTERNATIONAL CORPORATION, priority 2021, published 2025).
# How the values were obtained:
# [1] = Sensory evaluation of aqueous solution IV containing 1,5-octadien-3-one 100 ppt: off-flavor intensity and masking component intensity; details: aqueous solution IV, 1,5-octadien-3-one 100 ppt, average score 0-4
# Procedure: (§1) In ion-exchanged water, each degradation component was added to achieve the concentrations listed in Table 1, and aqueous solutions I to VI containing these degradation components were prepared.
# (§2) For the aforementioned aqueous solutions containing degradation components, nootkatone was added at the concentrations listed in Table 2 to confirm the intensity of the off-flavor (masking effect) in each sample and the intensity of the masking component itself (the impact on the flavor of the food and/or beverage itself).
# (§3) The test was conducted as follows. Eight experienced panelists were selected to conduct a sensory evaluation. The intensity of the off-flavor of the aqueous solution containing the degradation components derived from unsaturated fatty acids, without added masking components, was set as “Evaluation: 4.” The ion-exchanged water free of any degradation components was set as “Evaluation: 0.” The intensity of the off-flavor (masking effect) of each sample was then relatively evaluated according to the following evaluation criteria.
# (§4) • Off-flavor is strongly sensed: 4 points • Off-flavor is sensed: 3 points • Off-flavor is slightly sensed: 2 points • Off-flavor is barely sensed: 1 point • Off-flavor is not sensed at all: 0 points
# (§5) Also, the intensity of the masking components (impact on the flavor of the food and/or beverage itself) was absolutely evaluated according to the following evaluation criteria.
# (§6) • Masking component is strongly sensed: 4 points • Masking component is sensed: 3 points • Masking component is slightly sensed: 2 points • Masking component is barely sensed: 1 point • Masking component is not sensed at all: 0 points
# [2] = Sensory evaluation of aqueous solution II containing (E)-2-octenal 10 ppb: off-flavor intensity and masking component intensity; details: average score 0-4
# Procedure: as §1, §2, §3, §4, §5, §6
# [3] = Sensory evaluation of aqueous solution V containing 1-octen-3-ol 10 ppb: off-flavor intensity and masking component intensity; details: average score 0-4
# Procedure: as §1, §2, §3, §4, §5, §6
# [4] = Sensory evaluation of aqueous solution I containing (E)-2-nonenal 1 ppb: off-flavor intensity and masking component intensity; details: average score 0-4
# Procedure: as §1, §2, §3, §4, §5, §6
structure (smiles),measurement,setting,value
"C/C=C/C(=O)C1=C(C)C=CCC1(C)C [β-Damascenone, β-damascenone]",Masking Component Intensity,[1]; 0.001 ppt added,0.3 points
same,Masking Component Intensity,[1]; 0.01 ppt added,0.4 points
same,Masking Component Intensity,[1]; 0.1 ppt added,0.8 points
same,Masking Component Intensity,[1]; 1 ppb added,2.0 points
same,Masking Component Intensity,[1]; 1 ppt added,1.1 points
same,Masking Component Intensity,[1]; 10 ppb added,3.0 points
same,Masking Component Intensity,[1]; 10 ppt added,1.4 points
same,Masking Component Intensity,[1]; 100 ppb added,3.1 points
same,Masking Component Intensity,[1]; 100 ppt added,1.8 points
same,Masking Component Intensity,[2]; 0.001 ppt added,0.8 points
same,Masking Component Intensity,[2]; 0.01 ppt added,0.9 points
same,Masking Component Intensity,[2]; 0.1 ppt added,1.1 points
same,Masking Component Intensity,[2]; 1 ppb added,3.0 points
same,Masking Component Intensity,[2]; 1 ppt added,1.3 points
same,Masking Component Intensity,[2]; 10 ppb added,3.4 points
same,Masking Component Intensity,[2]; 10 ppt added,1.8 points
same,Masking Component Intensity,[2]; 100 ppb added,3.8 points
same,Masking Component Intensity,[2]; 100 ppt added,2.4 points
same,Masking Component Intensity,[3]; 0.001 ppt added,0.6 points
same,Masking Component Intensity,[3]; 0.01 ppt added,1.0 points
same,Masking Component Intensity,[3]; 0.1 ppt added,1.1 points
same,Masking Component Intensity,[3]; 1 ppb added,3.1 points
same,Masking Component Intensity,[3]; 1 ppt added,1.6 points
same,Masking Component Intensity,[3]; 10 ppb added,3.6 points
same,Masking Component Intensity,[3]; 10 ppt added,1.6 points
same,Masking Component Intensity,[3]; 100 ppb added,3.8 points
same,Masking Component Intensity,[3]; 100 ppt added,2.4 points
same,Masking Component Intensity,[4]; 0.001 ppt added,0.1 points
same,Masking Component Intensity,[4]; 0.01 ppt added,0.8 points
same,Masking Component Intensity,[4]; 0.1 ppt added,1.0 points
same,Masking Component Intensity,[4]; 1 ppb added,2.6 points
same,Masking Component Intensity,[4]; 1 ppt added,1.4 points
same,Masking Component Intensity,[4]; 10 ppb added,3.0 points
same,Masking Component Intensity,[4]; 10 ppt added,1.6 points
same,Masking Component Intensity,[4]; 100 ppb added,3.6 points
same,Masking Component Intensity,[4]; 100 ppt added,2.0 points
"CC(=O)/C=C/C1=C(C)CCCC1(C)C [β-Ionone, β-ionone]",Masking Component Intensity,[1]; 0.01 ppt added,0.1 points
same,Masking Component Intensity,[1]; 0.1 ppt added,0.3 points
same,Masking Component Intensity,[1]; 1 ppb added,1.8 points
same,Masking Component Intensity,[1]; 1 ppm added,3.8 points
same,Masking Component Intensity,[1]; 1 ppt added,0.4 points
same,Masking Component Intensity,[1]; 10 ppb added,2.1 points
same,Masking Component Intensity,[1]; 10 ppt added,0.5 points
same,Masking Component Intensity,[1]; 100 ppb added,2.8 points
same,Masking Component Intensity,[1]; 100 ppt added,1.0 points
same,Masking Component Intensity,[2]; 0.01 ppt added,0.3 points
same,Masking Component Intensity,[2]; 0.1 ppt added,0.5 points
same,Masking Component Intensity,[2]; 1 ppb added,2.1 points
same,Masking Component Intensity,[2]; 1 ppm added,3.9 points
same,Masking Component Intensity,[2]; 1 ppt added,0.9 points
same,Masking Component Intensity,[2]; 10 ppb added,2.6 points
same,Masking Component Intensity,[2]; 10 ppt added,1.1 points
same,Masking Component Intensity,[2]; 100 ppb added,3.4 points
same,Masking Component Intensity,[2]; 100 ppt added,1.4 points
same,Masking Component Intensity,[3]; 0.01 ppt added,0.1 points
same,Masking Component Intensity,[3]; 0.1 ppt added,0.4 points
same,Masking Component Intensity,[3]; 1 ppb added,2.0 points
same,Masking Component Intensity,[3]; 1 ppm added,3.9 points
same,Masking Component Intensity,[3]; 1 ppt added,0.6 points
same,Masking Component Intensity,[3]; 10 ppb added,2.5 points
same,Masking Component Intensity,[3]; 10 ppt added,0.6 points
same,Masking Component Intensity,[3]; 100 ppb added,3.3 points
same,Masking Component Intensity,[3]; 100 ppt added,1.3 points
same,Masking Component Intensity,[4]; 0.01 ppt added,0.4 points
same,Masking Component Intensity,[4]; 0.1 ppt added,0.5 points
same,Masking Component Intensity,[4]; 1 ppb added,1.9 points
same,Masking Component Intensity,[4]; 1 ppm added,3.9 points
same,Masking Component Intensity,[4]; 1 ppt added,0.5 points
same,Masking Component Intensity,[4]; 10 ppb added,2.4 points
same,Masking Component Intensity,[4]; 10 ppt added,0.8 points
same,Masking Component Intensity,[4]; 100 ppb added,3.3 points
same,Masking Component Intensity,[4]; 100 ppt added,1.3 points
